According to paper PMC3365051, “Sequence-Specific Binding of Recombinant Zbed4 to DNA: Insights into Zbed4 Participation in Gene Transcription and Its Association with Other Proteins”:
Results are given in words; binding and its absence hold for the method and conditions named. Binding seen in cells or lysates may run through a third protein. Here binding means that the protein was enriched with, or labelled near, the bait; the list need not be complete.

The chains behind the UniProt entries cited, without tags or fusion partners.
UniProt P35579: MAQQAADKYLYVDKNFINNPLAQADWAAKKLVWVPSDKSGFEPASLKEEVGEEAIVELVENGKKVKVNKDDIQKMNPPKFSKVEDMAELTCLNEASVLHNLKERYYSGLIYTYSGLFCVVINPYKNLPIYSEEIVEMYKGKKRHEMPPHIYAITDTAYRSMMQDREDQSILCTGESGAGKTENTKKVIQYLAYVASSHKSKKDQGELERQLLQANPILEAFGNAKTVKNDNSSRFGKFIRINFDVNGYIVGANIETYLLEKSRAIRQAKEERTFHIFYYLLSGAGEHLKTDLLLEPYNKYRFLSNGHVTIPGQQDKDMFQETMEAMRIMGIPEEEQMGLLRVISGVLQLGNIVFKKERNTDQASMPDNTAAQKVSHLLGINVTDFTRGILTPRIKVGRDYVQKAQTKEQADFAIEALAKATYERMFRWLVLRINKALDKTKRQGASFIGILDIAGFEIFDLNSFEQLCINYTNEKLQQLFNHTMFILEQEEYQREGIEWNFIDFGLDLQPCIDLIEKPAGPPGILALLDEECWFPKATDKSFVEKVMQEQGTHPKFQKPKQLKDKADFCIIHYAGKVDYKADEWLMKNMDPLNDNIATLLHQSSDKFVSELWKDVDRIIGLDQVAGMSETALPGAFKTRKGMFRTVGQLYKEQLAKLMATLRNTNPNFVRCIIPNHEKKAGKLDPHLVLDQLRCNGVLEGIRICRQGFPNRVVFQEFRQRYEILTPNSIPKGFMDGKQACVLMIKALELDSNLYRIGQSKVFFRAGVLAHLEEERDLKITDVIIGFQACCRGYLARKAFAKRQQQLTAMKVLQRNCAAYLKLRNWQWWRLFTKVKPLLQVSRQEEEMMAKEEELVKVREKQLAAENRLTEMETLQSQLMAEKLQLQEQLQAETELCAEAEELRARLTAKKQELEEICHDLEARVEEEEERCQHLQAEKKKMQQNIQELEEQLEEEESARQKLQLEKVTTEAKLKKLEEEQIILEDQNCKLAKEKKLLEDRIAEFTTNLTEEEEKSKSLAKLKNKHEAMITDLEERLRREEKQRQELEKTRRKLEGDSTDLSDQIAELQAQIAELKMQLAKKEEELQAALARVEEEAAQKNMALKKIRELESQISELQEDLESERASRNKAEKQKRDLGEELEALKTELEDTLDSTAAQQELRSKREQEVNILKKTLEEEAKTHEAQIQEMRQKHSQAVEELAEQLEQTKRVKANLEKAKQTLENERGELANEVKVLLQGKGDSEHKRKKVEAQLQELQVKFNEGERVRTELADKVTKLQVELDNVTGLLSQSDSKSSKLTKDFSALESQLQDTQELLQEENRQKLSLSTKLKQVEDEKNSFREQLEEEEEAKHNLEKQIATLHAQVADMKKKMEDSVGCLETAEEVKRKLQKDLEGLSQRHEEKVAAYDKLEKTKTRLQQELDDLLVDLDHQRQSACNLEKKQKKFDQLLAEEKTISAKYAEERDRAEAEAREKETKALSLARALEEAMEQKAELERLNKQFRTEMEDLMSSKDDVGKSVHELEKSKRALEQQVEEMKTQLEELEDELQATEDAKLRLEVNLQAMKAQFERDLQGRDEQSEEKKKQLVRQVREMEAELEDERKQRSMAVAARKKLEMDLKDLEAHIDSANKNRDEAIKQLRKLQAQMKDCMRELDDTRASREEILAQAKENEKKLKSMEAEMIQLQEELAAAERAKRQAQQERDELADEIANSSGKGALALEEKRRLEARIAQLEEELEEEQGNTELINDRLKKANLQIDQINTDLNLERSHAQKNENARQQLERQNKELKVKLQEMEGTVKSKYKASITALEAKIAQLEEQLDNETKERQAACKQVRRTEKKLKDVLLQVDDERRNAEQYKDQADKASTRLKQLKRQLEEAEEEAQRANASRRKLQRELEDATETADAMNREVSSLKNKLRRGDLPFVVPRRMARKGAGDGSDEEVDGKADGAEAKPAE

Molecular target: T1, endogenous ZBED4 of Y79 retinoblastoma cells (human (endogenous in Y79)) (UniProt O75132)
T1 sequence: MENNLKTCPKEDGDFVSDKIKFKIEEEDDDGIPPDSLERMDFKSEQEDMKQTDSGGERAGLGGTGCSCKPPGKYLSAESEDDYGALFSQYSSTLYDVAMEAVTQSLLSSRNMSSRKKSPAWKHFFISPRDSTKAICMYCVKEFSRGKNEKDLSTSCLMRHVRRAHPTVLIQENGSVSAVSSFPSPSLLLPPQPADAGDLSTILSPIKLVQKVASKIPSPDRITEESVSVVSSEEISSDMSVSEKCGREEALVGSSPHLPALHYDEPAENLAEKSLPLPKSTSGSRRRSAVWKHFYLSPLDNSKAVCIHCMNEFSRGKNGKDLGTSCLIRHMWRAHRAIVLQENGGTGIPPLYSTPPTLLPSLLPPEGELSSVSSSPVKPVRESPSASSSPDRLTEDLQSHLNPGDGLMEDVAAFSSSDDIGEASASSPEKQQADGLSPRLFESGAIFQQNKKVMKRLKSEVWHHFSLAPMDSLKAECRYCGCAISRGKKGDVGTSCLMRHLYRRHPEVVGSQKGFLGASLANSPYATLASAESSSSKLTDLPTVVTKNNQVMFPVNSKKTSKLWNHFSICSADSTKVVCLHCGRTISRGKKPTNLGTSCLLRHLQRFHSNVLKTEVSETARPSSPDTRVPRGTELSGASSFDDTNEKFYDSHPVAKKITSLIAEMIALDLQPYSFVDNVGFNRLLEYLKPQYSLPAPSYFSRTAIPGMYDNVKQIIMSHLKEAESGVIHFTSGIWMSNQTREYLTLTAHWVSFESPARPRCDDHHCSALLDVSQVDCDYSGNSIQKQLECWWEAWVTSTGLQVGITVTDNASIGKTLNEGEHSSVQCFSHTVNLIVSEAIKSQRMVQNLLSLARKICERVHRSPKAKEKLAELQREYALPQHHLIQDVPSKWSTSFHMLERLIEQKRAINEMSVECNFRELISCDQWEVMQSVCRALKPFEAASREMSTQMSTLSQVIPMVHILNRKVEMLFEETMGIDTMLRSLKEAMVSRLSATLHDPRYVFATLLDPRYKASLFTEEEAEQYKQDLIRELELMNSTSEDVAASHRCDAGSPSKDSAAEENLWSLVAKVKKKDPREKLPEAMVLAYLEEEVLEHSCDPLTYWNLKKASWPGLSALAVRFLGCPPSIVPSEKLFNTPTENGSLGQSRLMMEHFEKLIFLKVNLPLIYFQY
Experiment: affinity purification with mass spectrometry; Y79 cells lysed in RIPA buffer; immunoprecipitation with Zbed4 antibody (Immobilized Protein G kit), pre-immune serum as control; bands excised from SDS-PAGE (SYPRO Ruby), trypsin digestion, nLC-MS/MS

cellular myosin 9 (from UniProt P35579 1-1960)
binding: binds
